PubChem BioAssay AID1224830, NIAID | 2016
Aim: 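Regulators of TLR4 signalling towards TNF-alpha in macrophage-like cells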 (primary screen). System: human THP-1 monocytic leukaemia cells, TNF dual-luciferase reporter clone, PMA-differentiated to macrophage-like cells. Knock-down reagent: siRNA pool against human genes, 50 nM. Duration: LPS for 4 h, given about 3 days after siRNA transfection. Challenge: bacterial LPS (TLR4 ligand), 10 ng/ml. Detection: 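TNF firefly reporter luminescence divided by renilla, normalised to the plate median, then turned into a robust z-score for each replicate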. Scale: TNF reporter robust z-score: higher = stronger TNF reporter response to LPS. Call rule: 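Each well counts as active if its z-score is over 2.8 or under -1.5; controls are left without a call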.
Here is one part, drawn at random, of about 18,000 deposited reagents. Of all reagents, about 2,900 (16%) got an active call. 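Calls are made per well; low scores hint the gene aids the LPS response, high scores that it dampens it.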 Entries without a mark were called inactive. Repeated entries: four replicate wells of each siRNA pool.

| Target gene | TNF reporter robust z-score |
| --- | --- |
| SPRYD3 | -0.81 |
| SPRYD3 | -0.34 |
| SPRYD3 | -1.29 |
| SPRYD3 | -1.04 |
| DCTD | -0.7 |
| DCTD | 0.28 |
| DCTD | -0.13 |
| DCTD | 0.03 |
| PANK3 | 0.07 |
| PANK3 | 0.5 |
| PANK3 | 0.72 |
| ACAN | -0.61 |
| ACAN | 0.27 |
| ACAN | 0.16 |
| ACAN | 0.03 |
| ANKHD1-EIF4EBP3 | 1.22 |
| ANKHD1-EIF4EBP3 | 0.03 |
| ANKHD1-EIF4EBP3 | -0.63 |
| ANKHD1-EIF4EBP3 | 1.31 |
| OAZ3 | -1.34 |
| OAZ3 | -1.53 (active) |
| OAZ3 | -2.05 (active) |
| OAZ3 | -0.95 |
| SIL1 | -0.97 |
| SIL1 | -0.06 |
| SIL1 | -0.39 |
| SIL1 | -0.67 |
| GNAI3 | -1.79 (active) |
| GNAI3 | -1.31 |
| GNAI3 | -1.58 (active) |
| GNAI3 | -1.32 |
| GMFB | -0.76 |
| GMFB | -0.79 |
| GMFB | 1.53 |
| GMFB | 3.36 (active) |
| NUP35 | 0.87 |
| NUP35 | 0.13 |
| NUP35 | 0.5 |
| NUP35 | 0.77 |
| ZAP70 | 0.32 |
| ZAP70 | 1.26 |
| ZAP70 | 0.9 |
| ZAP70 | 2.42 |
| OR51L1 | -0.83 |
| OR51L1 | -0.75 |
| OR51L1 | -0.94 |
| OR51L1 | -0.27 |
| RPS2 | -1.81 (active) |
| RPS2 | -1.38 |
| RPS2 | -1.41 |
| RPS2 | -1.07 |
| C8orf44 | -0.98 |
| C8orf44 | -1.91 (active) |
| C8orf44 | -1.68 (active) |
| C8orf44 | -0.62 |
| SIK2 | 0.81 |
| SIK2 | -0.82 |
| SIK2 | -0.72 |
| SIK2 | -1.49 |
| IFT74 | -0.77 |
| IFT74 | -0.56 |
| IFT74 | -0.25 |
| IFT74 | 1.2 |

Records listed so far with an active call:
| Target gene | TNF reporter robust z-score |
| --- | --- |
| OAZ3 | -1.53 (active) |
| OAZ3 | -2.05 (active) |
| GNAI3 | -1.79 (active) |
| GNAI3 | -1.58 (active) |
| GMFB | 3.36 (active) |
| RPS2 | -1.81 (active) |
| C8orf44 | -1.91 (active) |
| C8orf44 | -1.68 (active) |

Next results follow.
| Target gene | TNF reporter robust z-score |
| --- | --- |
| NAALAD2 | 0.02 |
| NAALAD2 | -0.87 |
| NAALAD2 | -0.85 |
| NAALAD2 | -0.9 |
| FAT1 | 0.46 |
| FAT1 | -0.76 |
| FAT1 | -0.11 |
| FAT1 | 0.82 |
| ABAT | -1.42 |
| ABAT | -1.35 |
| ABAT | -1.56 (active) |
| ABAT | -1.25 |
| DNAJB2 | -1.35 |
| DNAJB2 | -0.21 |
| DNAJB2 | -0.77 |
| DNAJB2 | -0.98 |
| RNF32 | -2.24 (active) |
| RNF32 | -0.67 |
| RNF32 | 1.86 |
| RNF32 | 0.6 |
| SRPK1 | -1.79 (active) |
| SRPK1 | -1.77 (active) |
| SRPK1 | -1.94 (active) |
| SRPK1 | -1.51 (active) |
| SPRED3 | 0.71 |
| SPRED3 | 2.27 |
| SPRED3 | 0.23 |
| SPRED3 | 0.77 |
| BUB1B | -1.18 |
| BUB1B | -1.12 |
| BUB1B | -1.22 |
| BUB1B | -0.77 |
| ADGRA2 | 0.4 |
| ADGRA2 | 0.74 |
| ADGRA2 | 0.22 |
| ADGRA2 | 1.26 |
| RBFOX1 | 0.6 |
| RBFOX1 | 1.43 |
| RBFOX1 | -0.13 |
| RBFOX1 | 1.37 |
| HACE1 | 0 |
| HACE1 | 0.65 |
| HACE1 | 0.35 |
| HACE1 | -0.14 |
| GML | -1.12 |
| GML | 0.21 |
| GML | -0.3 |
| GML | -0.14 |
